Measurements reported in doi:10.1101/2021.07.06.451280.
Results are given in words; binding and its absence hold for the method and conditions named. In cells and extracts the contact can be indirect. Some binding calls cover weakened binding; strength is not graded here.

Chains of the proteins cited; added tags and fusions are not shown. Lines headed by an entry give the natural chain unless they say otherwise; changes in a name come on top. Residues count along the entry.
UniProt Q13586, 23-685: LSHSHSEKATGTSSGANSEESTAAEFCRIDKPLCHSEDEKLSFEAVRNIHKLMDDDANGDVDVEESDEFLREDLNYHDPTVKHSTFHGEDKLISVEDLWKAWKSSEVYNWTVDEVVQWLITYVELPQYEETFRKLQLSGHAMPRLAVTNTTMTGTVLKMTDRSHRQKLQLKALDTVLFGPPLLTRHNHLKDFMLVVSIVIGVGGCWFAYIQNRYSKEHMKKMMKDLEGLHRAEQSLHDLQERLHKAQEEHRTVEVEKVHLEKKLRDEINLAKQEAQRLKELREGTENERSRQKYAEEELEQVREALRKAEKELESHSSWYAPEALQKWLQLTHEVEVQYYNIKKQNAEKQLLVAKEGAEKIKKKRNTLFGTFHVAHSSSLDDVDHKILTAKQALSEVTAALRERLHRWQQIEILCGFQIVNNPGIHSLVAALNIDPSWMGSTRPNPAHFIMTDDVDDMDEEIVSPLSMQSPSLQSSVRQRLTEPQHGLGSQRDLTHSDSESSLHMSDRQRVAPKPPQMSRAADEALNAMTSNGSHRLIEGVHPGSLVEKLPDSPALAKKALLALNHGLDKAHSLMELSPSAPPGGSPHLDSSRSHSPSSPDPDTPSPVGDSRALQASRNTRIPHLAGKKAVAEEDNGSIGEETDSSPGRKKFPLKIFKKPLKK
UniProt Q13586, whole entry, looked up, stated change not applied: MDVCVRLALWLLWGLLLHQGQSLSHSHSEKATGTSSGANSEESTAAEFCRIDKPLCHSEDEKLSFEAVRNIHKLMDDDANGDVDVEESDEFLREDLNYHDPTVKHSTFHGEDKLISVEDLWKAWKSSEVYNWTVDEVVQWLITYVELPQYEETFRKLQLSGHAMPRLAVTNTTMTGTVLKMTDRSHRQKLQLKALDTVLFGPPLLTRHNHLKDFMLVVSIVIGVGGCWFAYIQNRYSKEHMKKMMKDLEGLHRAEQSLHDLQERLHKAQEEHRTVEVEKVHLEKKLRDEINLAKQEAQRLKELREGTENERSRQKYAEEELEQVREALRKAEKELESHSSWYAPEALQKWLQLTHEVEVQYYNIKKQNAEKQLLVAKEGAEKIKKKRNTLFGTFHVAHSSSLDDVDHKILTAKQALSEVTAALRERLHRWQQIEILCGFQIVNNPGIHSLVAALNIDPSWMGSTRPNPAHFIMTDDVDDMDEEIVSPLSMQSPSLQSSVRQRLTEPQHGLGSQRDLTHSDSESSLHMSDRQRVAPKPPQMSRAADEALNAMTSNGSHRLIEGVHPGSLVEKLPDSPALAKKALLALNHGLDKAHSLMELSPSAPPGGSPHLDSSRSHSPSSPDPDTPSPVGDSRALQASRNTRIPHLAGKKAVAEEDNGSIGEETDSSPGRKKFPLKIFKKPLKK
UniProt Q15691, whole entry: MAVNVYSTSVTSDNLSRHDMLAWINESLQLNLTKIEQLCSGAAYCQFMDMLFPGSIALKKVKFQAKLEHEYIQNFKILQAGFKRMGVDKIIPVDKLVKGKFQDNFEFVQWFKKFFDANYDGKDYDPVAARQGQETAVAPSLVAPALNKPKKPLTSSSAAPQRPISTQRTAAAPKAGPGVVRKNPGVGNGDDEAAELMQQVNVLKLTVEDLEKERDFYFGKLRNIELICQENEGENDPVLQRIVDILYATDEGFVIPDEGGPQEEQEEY

Tests used:
[1] = biological target: mCherry-tagged human STIM1-10A mutant (human) (UniProt Q13586); experiment: co-IP
[2] = biological target: mCherry-tagged human STIM1-WT (human) (UniProt Q13586); experiment: co-IP

binding [1]: binds
binding [2]: binds
Substance: EB1-GFP (from UniProt Q15691 1-268)
